The text below walks through data of patent EP3235511A1, “SULPHONAMIDE COMPOUNDS FOR USE IN THE TREATMENT OF HHV-8-ASSOCIATED DISEASES” (UNIVERSITA' DEGLI STUDI DI CAGLIARI, priority 2016, dated 2017).

Converted amounts (≈) assume the structure as drawn.

By CC50 is commonly meant the concentration at which the toxic effect on the cells reaches its halfway point.

Series [1] is described as follows: Cytotoxicity (MTT cell viability) on BC3 cells. The series is classed as cell-based. Particulars: human. The protocol: A stock of human HUVEC umbilical cord primary cells (Invitrogen Life Technologies, UK) was cultured in a culture medium M200 (Gibco, Life Technologies, UK) with low serum growth supplement (LSGS, Invitrogen Life Technologies, UK). The HUVEC cells were always kept in a semi-confluent state and were sub-cultured at least once a week. Prior to testing, the cells were sub-cultured no more than 3-5 times. The BC3 cells permanently infected with HHV 8 were cultured in a RPMI 1640 medium supplemented with a 10% fetal calf serum (FCS) (Invitrogen Life Technologies, UK). The BC3 cells were used to produce 100x concentrated stocks of HHV 8, as described in the literature. The pellets of the virus was suspended in RPMI, filtered through a 0.22 µm filter and stored at -80 °C until use. The quantitative analysis of viral genomes present in the stock preparation was obtained by a real-time polymerase chain reaction (qPCR). Inocula without purified cells contained an average number of 4.7 x 10^5 viral DNA copies/mL (data not shown). For infection of cells, approximately 5.0 x 10^4 HUVEC cells/mL were seeded in 12 multi-well plates. The cells were infected with HHV 8, concentrated to a multiplicity of at least 10-20 genomes per cell in an M200 containing 2 µg/mL polibrene (esadimetrin bromide) for 2 hours at 37 °C. […]

The nature of series [2]: Cytotoxicity (MTT cell viability) on HUVEC primary cells. The format is cell-based, human. Particulars: human, huvec cells. On the procedure: (§1) A stock of human HUVEC umbilical cord primary cells (Invitrogen Life Technologies, UK) was cultured in a culture medium M200 (Gibco, Life Technologies, UK) with low serum growth supplement (LSGS, Invitrogen Life Technologies, UK). The HUVEC cells were always kept in a semi-confluent state and were sub-cultured at least once a week. Prior to testing, the cells were sub-cultured no more than 3-5 times. The BC3 cells permanently infected with HHV 8 were cultured in a RPMI 1640 medium supplemented with a 10% fetal calf serum (FCS) (Invitrogen Life Technologies, UK). The BC3 cells were used to produce 100x concentrated stocks of HHV 8, as described in the literature. The pellets of the virus was suspended in RPMI, filtered through a 0.22 µm filter and stored at -80 °C until use. The quantitative analysis of viral genomes present in the stock preparation was obtained by a real-time polymerase chain reaction (qPCR). […] For infection of cells, approximately 5.0 x 10^4 HUVEC cells/mL were seeded in 12 multi-well plates. The cells were infected with HHV 8, concentrated to a multiplicity of at least 10-20 genomes per cell in an M200 containing 2 µg/mL polibrene (esadimetrin bromide) for 2 hours at 37 °C. […] Only cell mono-layers with at least 70-80% of HHV 8 infected cells were used for the experiments.

The next series in a line: in vitro. To be noted: human, thp-1 cells.
The nature of series [3]: Cytotoxicity (MTT cell viability) on THP-1 cells. To be noted: human, CC50, THP-1 cells (macrophage cell line devoid of HHV 8).
The subject of another series is HUVEC cells. As to the kind of experiment: Cytotoxicity (MTT cell viability) on HUVEC primary cells. The format is cell-based, human. To be noted: HUVEC cells (healthy umbilical cord human primary cells). The protocol: as §1

Turning to `Nc1ccc(S(N)(=O)=O)cc1` [SA4, sulphanilamide], the CC50 in series [1] (bc3 cells) was 100 µg/mL (≈ 582 µM); in series [2] (CC50), about 250 µg/mL (≈ 1450 µM); in “in vitro” it was about 125 µg/mL (≈ 726 µM).
For the compound `Cc1cc(NS(=O)(=O)c2ccc(N)cc2)no1` [BC6, sulfamethoxazole], the CC50 in series [1] (BC3 cells (lymphoma cell line permanently infected by HHV 8), read-out: CC50) is 100 µg/mL (≈ 396 µM); in series [3] it was about 125 µg/mL (≈ 494 µM); in series [2] (HUVEC cells (healthy umbilical cord human primary cells), read-out: CC50) it was over 125 µg/mL; with HUVEC cells, 125.60 µg/mL (≈ 496 µM).
